# This list was built around the results that the source calls inconclusive (neither active nor inactive); the mix of calls is not that of the screen. Potencies of inconclusive entries are doubtful fits and often do not repeat. A structure can be active in one record and inactive in another. The source made the active and inactive calls. How the source made its calls: active means hit-call score of the fitted dose curve at least 0.9, where 1 is the maximum; inconclusive means response in the unintended direction; inactive means score below 0.9.
# By UniProt entry, the sequences of proteins in these tests, tags left out. Where a name states a change or a piece, a line headed by the entry shows the natural chain unless it says otherwise.
# UniProt Q96RI1: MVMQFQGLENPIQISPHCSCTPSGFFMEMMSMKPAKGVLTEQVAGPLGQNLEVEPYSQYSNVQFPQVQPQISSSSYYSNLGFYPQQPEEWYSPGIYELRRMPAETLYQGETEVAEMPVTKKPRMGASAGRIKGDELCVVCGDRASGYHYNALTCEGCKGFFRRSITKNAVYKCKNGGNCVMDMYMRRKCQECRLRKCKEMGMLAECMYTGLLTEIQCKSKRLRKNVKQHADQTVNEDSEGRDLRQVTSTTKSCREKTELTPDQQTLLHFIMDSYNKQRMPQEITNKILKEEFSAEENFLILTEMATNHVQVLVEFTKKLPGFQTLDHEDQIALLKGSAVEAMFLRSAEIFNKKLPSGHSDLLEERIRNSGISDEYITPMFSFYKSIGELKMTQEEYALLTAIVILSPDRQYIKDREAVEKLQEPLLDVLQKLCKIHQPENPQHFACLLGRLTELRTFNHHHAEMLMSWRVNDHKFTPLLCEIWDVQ
# UniProt Q13133, whole entry, looked up: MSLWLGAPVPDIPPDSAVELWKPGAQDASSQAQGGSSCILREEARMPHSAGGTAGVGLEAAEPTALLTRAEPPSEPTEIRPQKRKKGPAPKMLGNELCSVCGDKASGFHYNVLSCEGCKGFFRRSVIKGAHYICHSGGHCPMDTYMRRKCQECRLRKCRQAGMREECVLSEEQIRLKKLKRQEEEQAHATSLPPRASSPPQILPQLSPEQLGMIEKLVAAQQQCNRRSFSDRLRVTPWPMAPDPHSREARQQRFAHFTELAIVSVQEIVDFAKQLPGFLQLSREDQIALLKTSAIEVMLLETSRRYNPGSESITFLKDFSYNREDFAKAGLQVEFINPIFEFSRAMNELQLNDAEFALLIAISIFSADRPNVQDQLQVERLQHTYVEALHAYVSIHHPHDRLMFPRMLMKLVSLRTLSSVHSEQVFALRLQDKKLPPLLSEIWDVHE
# UniProt P55055, whole entry, looked up: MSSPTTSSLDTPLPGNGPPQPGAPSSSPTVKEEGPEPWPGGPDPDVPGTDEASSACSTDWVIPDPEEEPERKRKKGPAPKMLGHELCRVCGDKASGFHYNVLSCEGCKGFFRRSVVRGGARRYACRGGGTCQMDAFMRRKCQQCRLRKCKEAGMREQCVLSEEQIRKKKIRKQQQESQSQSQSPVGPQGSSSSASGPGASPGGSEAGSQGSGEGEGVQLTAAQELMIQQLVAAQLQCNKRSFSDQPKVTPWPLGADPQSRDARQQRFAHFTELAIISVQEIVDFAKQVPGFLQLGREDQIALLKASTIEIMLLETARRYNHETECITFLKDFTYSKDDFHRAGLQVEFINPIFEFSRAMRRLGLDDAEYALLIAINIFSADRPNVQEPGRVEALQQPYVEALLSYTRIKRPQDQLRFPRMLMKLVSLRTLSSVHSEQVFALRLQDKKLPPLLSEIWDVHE
# Molecular target: Bile acid receptor (Homo sapiens) (UniProt Q96RI1)
# Experiment: ATG_FXR_TRANS: Attagene TRANS-FACTORIAL HepG2 Assay for Farnesoid X Receptor (FXR) (AID 2282979);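 further: hits raise reporter mRNA above DMSO so AC50 marks FXR activation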
# Settings: HepG2 Attagene TRANS FXR-GAL4 reporter transcription
# Procedure, shortened: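 Reporter transcripts from transfected HepG2 cells were measured 24 h after dosing, using RT-PCR with capillary electrophoresis of 6-FAM-labelled fragments. The read-out reflects activity of exogenous FXR-Gal4 chimera on GAL4-UAS units, with induction relative to DMSO.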
SMILES,outcome,AC50
c1ccc(B(c2ccccc2)c2ccccc2)cc1,inactive,–
OCCCS,–,inconclusive: 100 µM
O=c1cccc[nH]1,–,inconclusive: 0.0716 µM
CCN(Cc1cccnc1)C(=O)c1cccc(Cl)c1[C@]1(C)C(=O)N(Cc2ccc(OC)cc2OC)c2ccc(Cl)cc21,–,active: 2.58 µM
Cc1cc(CCN2CCN(c3nsc4ccccc34)CC2)cc2c1NC(=O)CC2(C)C,inactive,–
Cc1cc(C)c(C)c(C)c1,–,inconclusive: 0.915 µM
Cc1ccc(C(C)C)cc1,–,inconclusive: 100 µM
COc1cc([N+](=O)[O-])ccc1N,–,inconclusive: 100 µM
c1ccc2sc(SN(C3CCCCC3)C3CCCCC3)nc2c1,inactive,–
O=C(O)c1[nH]n(-c2ccc(S(=O)(=O)O)cc2)c(=O)c1N=Nc1ccc(S(=O)(=O)O)cc1,–,inconclusive: 94.5 µM
CC=CCO,inactive,–
CN(C)c1ccc(C(=C2C=CC(=[N+](C)C)C=C2)c2ccc(N(C)C)cc2)cc1,–,inconclusive: 17.1 µM
O=CC1CC1,–,inconclusive: 100 µM
OCCN1CN(CCO)CN(CCO)C1,inactive,–
C=CCOCC(O)CO (stereo not given),inactive,–
OCCCC(F)(F)C(F)(F)C(F)(F)C(F)(F)C(F)(F)C(F)(F)C(F)(F)F,–,inconclusive: 86.8 µM
CCCCCCCCn1sc(Cl)c(Cl)c1=O,–,inconclusive: 2.2 µM

# A few values from the entries so far:
# In AC50, O=C(O)c1[nH]n(-c2ccc(S(=O)(=O)O)cc2)c(=O)c1N=Nc1ccc(S(=O)(=O)O)cc1 shows inconclusive: 94.5 µM
# In AC50, CN(C)c1ccc(C(=C2C=CC(=[N+](C)C)C=C2)c2ccc(N(C)C)cc2)cc1 shows inconclusive: 17.1 µM
# In AC50, CCN(Cc1cccnc1)C(=O)c1cccc(Cl)c1[C@]1(C)C(=O)N(Cc2ccc(OC)cc2OC)c2ccc(Cl)cc21 shows active: 2.58 µM
# In outcome, c1ccc(B(c2ccccc2)c2ccccc2)cc1 shows inactive

# Molecular target: Oxysterols receptor LXR-alpha (Homo sapiens) (UniProt Q13133)
# Experiment: ATG_LXRa_TRANS: Attagene TRANS-FACTORIAL HepG2 Assay for human Liver X Receptor alpha (LXRa) (AID 2282980)
# Settings: HepG2 Attagene TRANS reporter, LXRa transactivation
# Procedure, shortened: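 Chemical-induced reporter mRNA measured by RT-PCR with fluorescent labelling and capillary electrophoresis after 24 h dosing of transiently transfected HepG2 cells expressing exogenous NR-Gal4 chimeras; increases scored against DMSO baseline.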
SMILES,AC50,outcome
OCCCS,inconclusive: 100 µM,–
COC(=O)CC(=O)OC,inconclusive: 0.313 µM,–
CC(=O)OCCOC(C)=O,–,inactive
CCCOc1ccc(S(=O)(=O)N2CCN(CC)CC2)cc1-c1nc2c(CC)n(Cc3ccccn3)nc2c(=O)[nH]1,inconclusive: 100 µM,–
O=c1cccc[nH]1,inconclusive: 175 µM,–
CCN(Cc1cccnc1)C(=O)c1cccc(Cl)c1[C@]1(C)C(=O)N(Cc2ccc(OC)cc2OC)c2ccc(Cl)cc21,inconclusive: 100 µM,–
Cc1cc(CCN2CCN(c3nsc4ccccc34)CC2)cc2c1NC(=O)CC2(C)C,inconclusive: 11 µM,–
Cc1cc(C)c(C)c(C)c1,inconclusive: 99.5 µM,–
O=C1c2ccccc2C(=O)c2cc(S(=O)(=O)O)ccc21,–,inactive
Cc1ccc(C(C)C)cc1,–,inactive
NC(=NCCCCCCN=C(N)/N=C(\N)Nc1ccc(Cl)cc1)/N=C(\N)Nc1ccc(Cl)cc1,–,inactive
COc1cc([N+](=O)[O-])ccc1N,inconclusive: 100 µM,–
c1ccc2sc(SN(C3CCCCC3)C3CCCCC3)nc2c1,–,inactive
O=C(O)c1[nH]n(-c2ccc(S(=O)(=O)O)cc2)c(=O)c1N=Nc1ccc(S(=O)(=O)O)cc1,inconclusive: 94.5 µM,–
CC=CCO,inconclusive: 1.8 µM,–
c1ccc2c(c1)ccc1ncccc12,inconclusive: 22.2 µM,–
CN(C)c1ccc(C(=C2C=CC(=[N+](C)C)C=C2)c2ccc(N(C)C)cc2)cc1,inconclusive: 5.55 µM,–
O=CC1CC1,–,inactive
OCC(CO)n1cnc(-c2ccc(F)cc2)c1-c1ccnc(Oc2ccccc2)n1,inconclusive: 0.141 µM,–
CSC(=O)c1cccc2nnsc12,inconclusive: 50 µM,–
C=CC(=O)OCCC(F)(F)C(F)(F)C(F)(F)C(F)(F)F,inconclusive: 267 µM,–
OCCCC(F)(F)C(F)(F)C(F)(F)C(F)(F)C(F)(F)C(F)(F)C(F)(F)F,–,inactive
CCCCCCCCn1sc(Cl)c(Cl)c1=O,inconclusive: 0.000339 µM,–
CC(CCC(=O)O)(c1ccc(O)cc1)c1ccc(O)cc1,inconclusive: 100 µM,–
FC(F)(F)COC(OCC(F)(F)F)OCC(F)(F)F,inconclusive: 150 µM,–

# Molecular target: Oxysterols receptor LXR-beta (Homo sapiens) (UniProt P55055)
# Experiment: ATG_LXRb_TRANS: Attagene TRANS-FACTORIAL HepG2 Assay for human Liver X Receptor beta (LXRb) (AID 2282981)
# Settings: HepG2 Attagene TRANS GAL4-LXRb reporter, mRNA
# Procedure, shortened: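 Multiplexed reporter assay, HepG2, 24 h dosing. Fluorescence of labelled RT-PCR products after capillary electrophoresis gives transcript level; positive fitting direction relative to DMSO.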
SMILES,AC50,outcome
Cn1ccnc1,inconclusive: 100 µM,–
c1ccc(B(c2ccccc2)c2ccccc2)cc1,inconclusive: 1.77 µM,–
OCCCS,inconclusive: 100 µM,–
CC(=O)OCCOC(C)=O,inconclusive: 100 µM,–
CCN(Cc1cccnc1)C(=O)c1cccc(Cl)c1[C@]1(C)C(=O)N(Cc2ccc(OC)cc2OC)c2ccc(Cl)cc21,inconclusive: 9.69 µM,–
NC(=NCCCCCCN=C(N)/N=C(\N)Nc1ccc(Cl)cc1)/N=C(\N)Nc1ccc(Cl)cc1,active: 24.1 µM,–
CC1(C)[C@H]2CC[C@]1(C)C(=O)C2,inconclusive: 100 µM,–
c1ccc2sc(SN(C3CCCCC3)C3CCCCC3)nc2c1,inconclusive: 71.7 µM,–
CC=CCO,inconclusive: 100 µM,–
CN(C)c1ccc(C(=C2C=CC(=[N+](C)C)C=C2)c2ccc(N(C)C)cc2)cc1,inconclusive: 2.71 µM,–
O=CC1CC1,inconclusive: 100 µM,–
O=c1n(CCO)c(=O)n(CCO)c(=O)n1CCO,inconclusive: 0.0844 µM,–
OCCN1CN(CCO)CN(CCO)C1,–,inactive
C=CCOCC(O)CO (stereo not given),inconclusive: 0.0784 µM,–
C=CC(=O)OCCC(F)(F)C(F)(F)C(F)(F)C(F)(F)F,inconclusive: 274 µM,–
CCCCCCCCn1sc(Cl)c(Cl)c1=O,–,inactive
